Among the data in paper PMC7136964 are binding values, retold here.

Chains of the proteins cited; added tags and fusions are not shown.
UniProt Q96RU2: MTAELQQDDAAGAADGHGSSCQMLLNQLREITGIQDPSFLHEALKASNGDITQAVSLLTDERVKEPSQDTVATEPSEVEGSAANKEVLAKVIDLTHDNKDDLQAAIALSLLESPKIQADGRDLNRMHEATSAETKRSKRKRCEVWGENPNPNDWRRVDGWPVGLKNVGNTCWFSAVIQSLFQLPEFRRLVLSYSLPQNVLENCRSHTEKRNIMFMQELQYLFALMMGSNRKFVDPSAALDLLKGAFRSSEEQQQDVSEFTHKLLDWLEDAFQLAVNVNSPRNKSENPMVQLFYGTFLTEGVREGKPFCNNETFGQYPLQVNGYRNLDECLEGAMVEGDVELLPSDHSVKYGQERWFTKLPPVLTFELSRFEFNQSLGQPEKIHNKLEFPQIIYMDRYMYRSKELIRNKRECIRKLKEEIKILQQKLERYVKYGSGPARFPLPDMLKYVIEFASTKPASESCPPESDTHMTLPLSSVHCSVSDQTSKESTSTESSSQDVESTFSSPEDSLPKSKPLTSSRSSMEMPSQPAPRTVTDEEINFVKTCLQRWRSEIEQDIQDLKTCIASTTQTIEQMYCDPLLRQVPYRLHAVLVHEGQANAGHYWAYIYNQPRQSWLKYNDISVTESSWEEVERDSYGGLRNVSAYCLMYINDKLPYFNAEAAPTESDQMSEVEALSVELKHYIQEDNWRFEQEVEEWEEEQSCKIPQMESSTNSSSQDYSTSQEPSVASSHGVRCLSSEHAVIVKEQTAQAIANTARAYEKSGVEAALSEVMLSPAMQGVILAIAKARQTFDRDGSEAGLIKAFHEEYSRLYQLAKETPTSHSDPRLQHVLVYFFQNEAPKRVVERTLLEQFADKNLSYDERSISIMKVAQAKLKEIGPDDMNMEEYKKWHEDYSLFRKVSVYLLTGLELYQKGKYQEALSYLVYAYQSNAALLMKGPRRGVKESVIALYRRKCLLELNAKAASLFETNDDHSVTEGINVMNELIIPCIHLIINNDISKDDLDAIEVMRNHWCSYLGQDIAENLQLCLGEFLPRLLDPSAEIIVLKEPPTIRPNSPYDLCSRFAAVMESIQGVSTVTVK

No constants are given. Whether binding was seen depends on the method and setting. Binding seen in cells or lysates may run through a third protein. A result given as binding can be weak or reduced; the word gives no strength.

The assay has as its target HA-tagged USP28 (UniProt Q96RU2). The assay can be described thus: co-IP; exogenous tagged proteins in transfected HEK293 cells; RIPA lysate, 500 μg lysate, 1 μg specific antibody, Protein A/G magnetic beads; immunoblot.

Take “FLAG-tagged ∆Np63 (from UniProt Q9H3D4-2)”: the binding result was “binds”.
